Experimental findings from PubChem BioAssay AID2685 (National Center for Advancing Translational Sciences (NCATS), 2010) are described below.

The test can be described thus: qHTS Assay for Lipid Storage Modulators in Drosophila S3 Cells.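 On cell number change: cells counted by Cell Tracker Red CMTPX staining in the red channel.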 The conditions noted are these: BODIPY lipid droplet fluorescence, 18-24 h; for cell number change: measured here: cell count max response, cells fed with added oleic acid. In a few lines:
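Drosophila S3 cells got compounds at several concentrations plus oleic acid (400 uM solution). Laser-scanning cytometry with 488 nm excitation read lipid droplets at 500-530 nm and cells at 575-640 nm. Percent activity was relative to 20 uM Triacsin C.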
On the technique in general: In qHTS, concentration-response curves come from the screen itself.

Where [1] appears, read: measured here: lipid fluorescence (Fed channel) AC50, cells fed with added oleic acid.
The mark [2] stands for this setting: measured here: cell number channel AC50, cells fed with added oleic acid.

The list shows a part of the results. Further columns of the screen follow, without active or inactive calls. Most of these compounds were active or inconclusive in the main read-out, so they are no random draw. Potencies come from curve fits of mixed quality, noted in brackets.

In the case of `C1CN(CCN2CCOCC2)CCN1`, the cell number change is 15.2%.

Usually AC50 stands for the concentration giving half of the maximal activity seen. A high value points to activity only at high concentration. With `Cc1ccc(C)c(SCC(=O)NC(=O)Nc2ccc3c(c2)OCCO3)c1`, the cell number change came out at 25.4%. Besides, the AC50 under setting [1] is 23.1 µM [rising, single point].

For `CCn1cc(C(=O)OCC(=O)N(C)Cc2ccccc2)c(=O)c2ccc(C)nc21`, the cell number change amounted to 24.4%.

As to `COc1cccc(-c2nn3c(-c4ccccn4)nnc3s2)c1`, the AC50 under setting [1] was 0.13 µM [rising, full curve].

As for `CCCc1cc(C(=O)Nc2cccc3ccccc23)n(C)n1`, the cell number change is 4.5%. Moreover, the AC50 under setting [1] was 1.03 µM [falling, full curve, poor fit].

Take `Clc1cccc2c1Sc1ccccc1CC2N1CCNCC1` (stereo not given): the cell number change was -68.4%. Moreover, under setting [2], the AC50 was 23.1 µM [falling, single point]. Under setting [1], the half-maximal activity concentration (AC50) is 29.1 µM [falling, single point].

For `CC(C)N(C(=O)CSc1nnnn1C1CCCC1)C(C)C`, the cell number change is -3.29%. Also, the AC50 under setting [2] is 6.51 µM [falling, single point]. In addition, under setting [1], the half-maximal activity concentration (AC50) is 5.17 µM [falling, partial curve, poor fit].

In the case of `Cc1cc(=O)oc2c(C)c(OC(C)C(=O)NCCCN3CCCC3=O)ccc12` (stereo not given), the cell number change was -11.4%. Further, the half-maximal activity concentration (AC50) under setting [1] was 6.51 µM [falling, single point].

As to `O=S(=O)(c1ccc(Br)s1)N1CCN(c2ccccn2)CC1`, the cell number change stood at 37.8%. Besides, the AC50 under setting [2] was 23.1 µM [rising, single point].

Regarding `COc1ccc(OC)c(Nc2nc(NCc3ccco3)nc(N)c2[N+](=O)[O-])c1`, the cell number change was -10.3%. For the same compound, the AC50 under setting [1] is 0.461 µM [falling, partial curve, poor fit].

For `COc1ccc(CCNC(=O)c2ccc3c(c2)N(Cc2ccc(C)cc2)CCS3)cc1OC`, the cell number change is -4.25%.

`CC1(C)C(=O)C2(CCCCC2)C(=O)OC1c1cccs1` (stereo not given): the cell number change is -8.14%. The AC50 under setting [1] is 2.59 µM [falling, partial curve, poor fit].

Consider `Cc1ccccc1NC(=O)Cn1nc(C(=O)O)c2ccccc2c1=O`, for which the cell number change came to 11.8%.

`CCOc1ccc(C(=O)N2CCCC2C(=O)O)cc1` (stereo not given): the cell number change is 20%. In addition, the AC50 under setting [1] is 0.0651 µM [rising, full curve, poor fit].

Regarding `COc1cc(/C=C2/CC/C(=C/c3ccc(O)c(OC)c3)C2=O)ccc1O`, the cell number change was -17.5%. The AC50 under setting [1] was 29.1 µM [falling, single point].

With `Cc1cccc(NC(=O)CCNS(=O)(=O)c2cccc3nsnc23)c1`, the cell number change was -14.5%. For the same compound, the concentration at half-maximal activity (AC50) under setting [1] is 1.16 µM [rising, full curve].

On to `CC(=O)c1c(C)[nH]c(C(=O)NCc2ccccc2F)c1C`, for which the cell number change stood at 10.4%.

Take `O=C(NC(=S)NCc1ccccc1)c1cccc(Cl)c1`: the cell number change was -2.75%. For the same compound, under setting [1], the AC50 was 3.66 µM [rising, full curve].

Turning to `CCOc1ccc(C(=O)NCCCN2CCCC2=O)cc1`, the cell number change turned out to be 21.6%. In addition, the AC50 under setting [1] was 6.51 µM [falling, single point].

Consider `CCOC(=O)c1cc2c(ccn2C)n1CC(=O)N1CCN(c2ccc(F)cc2)CC1`, for which the cell number change is -46.6%. Under setting [2], the concentration at half-maximal activity (AC50) is 4.11 µM [falling, full curve]. Besides, the concentration at half-maximal activity (AC50) under setting [1] is 3.66 µM [falling, full curve].

For the compound `CC(C)=CC(=O)OCC(=O)NC1CCCc2ccccc21` (stereo not given), the cell number change is 15.8%.

As for `Cc1ccccc1-c1nc2ccccc2c(=O)n1/N=C/c1ccccc1[N+](=O)[O-]`, the cell number change was -27.2%.

Regarding `CC(=O)N1c2ccc(S(=O)(=O)N3CCCC(C(=O)Nc4cccc(F)c4)C3)cc2CC1C` (stereo not given), the cell number change came to 22%.

For `CCOC(=O)c1c(-c2ccccc2)oc2ccc(OCC(O)CN(C)C)cc12` (stereo not given), the cell number change is 13.2%. In addition, the AC50 under setting [2] is 0.00517 µM [rising, full curve, poor fit].

As to `CC(=C/c1ccco1)/C=N/NC(=O)CSc1nnc(SCc2ccc(C)cc2)s1`, the cell number change is 14.9%. For the same compound, the half-maximal activity concentration (AC50) under setting [2] is 0.651 µM [falling, full curve]. Moreover, the AC50 under setting [1] is 0.82 µM [falling, single point].

Regarding `COc1ccc(C(=O)N/N=C/c2ccc(OC)c(COc3ccc(F)cc3F)c2)cc1`, the cell number change was 19.7%. Also, under setting [1], the AC50 was 0.282 µM [falling, full curve].

`CC(=O)NS(=O)(=O)c1ccc(N=NN2CCOCC2)cc1`: the cell number change was -30.5%. Also, the AC50 under setting [2] is 23.1 µM [falling, partial curve, poor fit]. For the same compound, under setting [1], the AC50 is 3.26 µM [falling, full curve].

As to `S=c1[nH]nc(-c2ccc(Br)cc2)n1-c1ccc(Br)cc1`, the cell number change was -29.8%. Also, the concentration at half-maximal activity (AC50) under setting [1] was 29.1 µM [falling, single point].

`COc1ccc(C(CNC(=O)c2ccco2)N2CCOCC2)cc1` (stereo not given): the cell number change is 20.5%. In addition, under setting [1], the concentration at half-maximal activity (AC50) is 1.64 µM [falling, partial curve, poor fit].

Take `Cc1ccc2c(C)c(C(=O)Nc3ccc(S(N)(=O)=O)cc3)oc2c1C`: the cell number change was -10.1%.

Consider `Cc1c(CNCCc2ccccc2Cl)c(C(=O)O)c(C)n1-c1ccccc1`, for which the cell number change was -0.709%. The AC50 under setting [2] is 2.06 µM [rising, partial curve, poor fit].

With `O=C(CN1CCc2ccccc2C1)Nc1ccc(F)cc1F`, the cell number change was found to be 144%. Further, under setting [1], the AC50 was 29.1 µM [rising, single point].

In the case of `Cc1cc(NC(=O)CSC2=NCCS2)no1`, under setting [1], the concentration at half-maximal activity (AC50) was 29.1 µM [rising, single point].

Regarding `COc1cc(CCC(=O)N2CCN(S(=O)(=O)c3ccc(C)cc3)CC2)cc(OC)c1OC`, the cell number change worked out at 4.7%. Also, under setting [1], the AC50 was 0.731 µM [falling, single point].

Take `Cc1ccc(NC(=O)Nc2ccc3c(c2)OCO3)c(Br)c1`: the cell number change is -43.3%. The AC50 under setting [2] was 29.1 µM [falling, single point].

In the case of `C=CCNC(=O)c1ccc(-c2nc(-c3ccc(Cl)cc3Cl)cs2)cc1`, the concentration at half-maximal activity (AC50) under setting [1] was 0.58 µM [rising, single point].

Turning to `Clc1ccccc1/C=C/c1ccnc2ccccc12`, the cell number change is -27.6%. Under setting [1], the AC50 was 29.1 µM [falling, single point].

On to `C=CCN1C(=O)S/C(=C\c2ccc3c(c2)n(C)c(=O)n3C)C1=O`, for which the cell number change amounted to 8.25%. Besides, the concentration at half-maximal activity (AC50) under setting [1] is 0.0366 µM [rising, full curve, poor fit].

As to `C=CCn1c(SCC(=O)NCC)nnc1-c1cc2c(s1)CCC(CC)C2` (stereo not given), the cell number change is -34.3%. In addition, under setting [2], the AC50 is 32.6 µM [falling, single point]. Also, under setting [1], the concentration at half-maximal activity (AC50) was 32.6 µM [falling, single point].

Take `CC/C(=N\NC(=S)Nc1ccc(OC)cc1)c1ccc(OC(F)F)cc1`: the cell number change worked out at 39.7%. Moreover, the half-maximal activity concentration (AC50) under setting [2] was 9.2 µM [rising, partial curve]. In addition, under setting [1], the concentration at half-maximal activity (AC50) was 0.366 µM [rising, full curve, poor fit].

For `C#CCOCCOCCOCCNc1nc(N2CCN(C(=O)CCCCCCCCCCNC(=O)[C@@H]([C@H](C)O)n3cc(C)nn3)CC2)nc(N2CCN(C(=O)CCCCCCCCCCNC(=O)[C@@H]([C@H](C)O)n3cc(C)nn3)CC2)n1`, the cell number change is -28.1%. Besides, the AC50 under setting [1] is 0.0058 µM [falling, full curve, poor fit].

Turning to `O=C(CN1C2=NCCN2c2ccccc21)N1CCOCC1`, the cell number change was -21.2%. In addition, the AC50 under setting [1] was 0.231 µM [falling, full curve].

For the compound `CC(C#N)On1c(SC(C)C#N)nc2ccccc2c1=O` (stereo not given), the cell number change is -21.2%. The AC50 under setting [2] is 1.64 µM [falling, partial curve, poor fit].

As for `O=C(CSC1=Nc2ccccc2C2CC=NN12)Nc1ccc(F)c(F)c1F` (stereo not given), the cell number change is -23%. The AC50 under setting [1] is 32.6 µM [rising, partial curve, poor fit].

Take `Cc1cc(C)c(S(=O)(=O)Nc2ccc[nH]c2=O)c(C)c1`: the concentration at half-maximal activity (AC50) under setting [2] is 6.51 µM [rising, single point].

On to `CS(=O)(=O)N1CCN(C(=O)NC23CC4CC(CC(C4)C2)C3)CC1`, for which the cell number change is -27.2%. Besides, the AC50 under setting [2] is 0.58 µM [falling, full curve, poor fit]. Moreover, the half-maximal activity concentration (AC50) under setting [1] was 29.1 µM [falling, single point].

Turning to `O=C(COc1ccc2ccc(=O)oc2c1)N1CCN(c2ccc(F)cc2)CC1`, the cell number change is 12.5%. For the same compound, under setting [1], the AC50 is 6.51 µM [falling, single point].

For the compound `CC1(C)CC(NC(=O)COc2cc3oc(=O)c4c(c3cc2Cl)CCC4)CC(C)(C)N1`, the cell number change came out at 10.4%. Under setting [1], the AC50 was 20.6 µM [rising, partial curve].

Turning to `CCOc1ccccc1C(=O)N1CCN(c2cccc(Cl)c2)CC1`, the concentration at half-maximal activity (AC50) by setting is: under setting [2], 2.06 µM [rising, partial curve]; under setting [1], 1.46 µM [rising, partial curve].

For the compound `Cc1nn(Cc2ccccc2)c(Cl)c1C(=O)OCC#N`, the cell number change was found to be 36.9%. Under setting [2], the AC50 is 14.6 µM [rising, partial curve].

On to `CC(=O)Nc1ccc(S(=O)(=O)NCC2(N3CCOCC3)CCCCC2)cc1`, for which the cell number change is -50%. Besides, under setting [2], the AC50 is 29.1 µM [falling, single point].

Turning to `CCOC(=O)NCC(C#CCN(CC)CC)N(CC)CC` (stereo not given), the cell number change was -109%. Also, under setting [2], the half-maximal activity concentration (AC50) is 14.6 µM [falling, partial curve]. Moreover, the AC50 under setting [1] is 29.1 µM [falling, single point].

Turning to `CCOc1ccc(N(CC(=O)NC(C)CC)S(=O)(=O)c2c(C)noc2C)cc1` (stereo not given), the cell number change is -3.27%. The half-maximal activity concentration (AC50) under setting [2] is 0.731 µM [falling, full curve, poor fit]. In addition, the AC50 under setting [1] was 0.651 µM [falling, full curve].

As to `Cn1c(N)c(C(=O)COC(=O)CSc2ccc(Cl)cc2)c(=O)n(C)c1=O`, the cell number change was 33.3%. Under setting [2], the AC50 was 1.64 µM [falling, partial curve, poor fit].

On to `CC(=O)NS(=O)(=O)c1ccc(N)cc1`, for which the cell number change was -18%. Further, the AC50 under setting [2] was 3.26 µM [falling, partial curve, poor fit]. Further, under setting [1], the half-maximal activity concentration (AC50) is 0.731 µM [rising, full curve].

As for `COc1ccc(Cl)cc1C(=O)NNC(=S)NC(=O)/C=C/c1ccco1`, the AC50 is 0.58 µM [rising, single point] under setting [2] and 0.58 µM [rising, single point] under setting [1].

For the compound `Cc1nc(NCc2ccccc2)[nH]c(=O)c1CCC(C)C`, the concentration at half-maximal activity (AC50) under setting [2] is 6.51 µM [falling, single point] and the AC50 under setting [1] is 3.66 µM [falling, partial curve].

In the case of `Cc1ccc(CN2C(=O)C(Cc3ccccc3)Nc3ncnc(N4CCN(c5ccccc5)CC4)c32)cc1` (stereo not given), the cell number change stood at 4.88%. For the same compound, the AC50 under setting [2] is 6.51 µM [falling, single point]. In addition, the AC50 under setting [1] was 3.26 µM [falling, single point].
